Patent publication US11155523B2, “Biphenyl compound as CCR2/CCR5 receptor antagonist” (Medshine Discovery Inc., priority 2016, dated 2021)
Structures were worked out from names or drawings and are uncertain.

Protein sequences, listed by entry. Tags and fused reporters are not part of them.
UniProt P51681, whole entry: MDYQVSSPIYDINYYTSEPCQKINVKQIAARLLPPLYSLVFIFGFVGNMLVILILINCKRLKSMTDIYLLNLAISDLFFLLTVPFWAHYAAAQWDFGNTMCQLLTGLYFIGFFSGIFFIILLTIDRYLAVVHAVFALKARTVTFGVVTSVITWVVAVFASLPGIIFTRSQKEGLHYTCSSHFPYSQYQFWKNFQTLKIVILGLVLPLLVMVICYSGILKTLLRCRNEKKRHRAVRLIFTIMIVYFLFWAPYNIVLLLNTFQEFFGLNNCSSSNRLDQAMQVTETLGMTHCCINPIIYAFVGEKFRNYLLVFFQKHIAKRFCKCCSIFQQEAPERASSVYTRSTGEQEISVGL
UniProt P41597, whole entry: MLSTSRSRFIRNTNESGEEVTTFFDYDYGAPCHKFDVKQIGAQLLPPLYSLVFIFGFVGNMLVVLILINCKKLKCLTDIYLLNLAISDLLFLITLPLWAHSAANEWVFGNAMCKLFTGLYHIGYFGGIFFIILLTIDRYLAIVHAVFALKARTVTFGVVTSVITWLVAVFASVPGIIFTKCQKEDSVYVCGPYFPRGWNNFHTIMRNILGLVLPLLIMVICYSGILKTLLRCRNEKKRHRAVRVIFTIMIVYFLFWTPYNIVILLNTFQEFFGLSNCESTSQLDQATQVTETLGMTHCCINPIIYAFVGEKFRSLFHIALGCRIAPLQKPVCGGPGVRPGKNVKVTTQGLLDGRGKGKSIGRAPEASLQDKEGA

What was measured:
CCR5 = CCR5 (Homo sapiens, UniProt P51681); test: CCR5 in vitro test: intracellular calcium signal detected by FLIPR; details: read-out: IC50 detected by FLIPR, CCR5; HEK293 cells expressing CCR5, agonist RANTES at EC80, calcium signal
Method: (§1) Experimental Example 1: CCR2/CCR5 In Vitro Test
(§2) The intracellular calcium signal was detected by FLIPR, and the IC50 value of the compound was used as an index to evaluate the inhibitory effect of the compound on CCR2 and CCR5 receptors.
(§3) 1. Cell line: The cells were inoculated and incubated in a 5% CO2 incubator at 37° C. overnight.
(§4) CCR2/CCR5 density: 1 M (20 k/well)
(§5) 2. Reagents: Fluo-4 Direct, (Invitrogen, Cat #F10471)
(§6) The compound was dissolved in DMSO to prepare a 10 mM solution, and the compound solution was placed in a nitrogen box.
(§7) Agonist reference compounds:
(§8) Preparation of probenecid in FLIPR assay buffer: 1 mL of FLIPR assay buffer was added to […] of probenecid to prepare a 250 mM solution, which is prepared fresh daily. […]
(§9) (f) For DRC plate: • 1) Run the program on FLIPRTETRA. • 2) Read the fluorescent signal. • 3) Transfer 10 μL of compound from the DRC plate to the cell plate. • 4) Read the fluorescent signal. • 5) Calculate the “maximum−minimum” from Read 90 to the maximum allowed. […]
(§10) (g) For the composite plate (1-add): • 1) Run the program on FLIPRTETRA. • 2) Transfer 10 μl, of 5×EC80 concentration of the agonist reference compound from the composite plate to the cell plate. • 3) Read the fluorescent signal. • 4) Calculate the “maximum−minimum” from Read 90 to the maximum allowed. […]

CCR2 = CCR2 (Homo sapiens, UniProt P41597); test: CCR2 in vitro test: intracellular calcium signal detected by FLIPR; details: read-out: IC50 detected by FLIPR, CCR2; HEK293 cells expressing CCR2, agonist MCP-1 at EC80, calcium signal
Method: as §1, §2, §3, §4, §5, §6, §7, §8, §9, §10

Compound CCCCOCCOc1ccc(-c2ccc(OC)c(/C=C/C(=O)Nc3ccc([S@@+]([O-])Cc4cnccc4CCC)cc3)c2)cc1 has an IC50 (CCR5) of 2.1 nM and an IC50 (CCR2) of 66 nM.
